Data source: PubChem BioAssay AID1259292 (Sanger Institute, 2017)
The whole screen tested 160 reagents; this is a part drawn at random. Of all reagents, 64 (40%) got an active call. 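Four separate siRNAs per gene; a call can rest on any single drug, so look at each drug's score.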 Entries without a mark were called inactive. Reagents against one gene are numbered here. Not all columns of the deposit are shown. The record does not give: the amount of reagent, the time to read-out.

Screen: 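Kinase silencing that boosts cell killing by targeted cancer drugs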 (follow-up of hits)
Cells: human colorectal cancer RCM1 cells
Reagent: single siRNA against human genes
Treatment: anchor drugs BYL719 at 1 µM, cetuximab at 5 µg/ml or trametinib at 10 nM, or DMSO vehicle; exposure time not given
Measurement: 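Viability of cells relative to control pool 2 (non-targeting) following DMSO or drug (BYL719 1 µM, cetuximab 5 µg/ml, trametinib 10 nM), plus synergy scores by drug; averaged replicates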
Reading the numbers: synergy score with trametinib and synergy score with cetuximab and synergy score with BYL719: higher = stronger combined killing beyond expected (synthetic lethal)
Call rule: 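a gene counts as synergistic when its synergy score is over 0.10 with at least one of the three drugs; otherwise no synergy with any drug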
Meaning of the calls: active = synergy with at least one anchor drug; inactive = no synergy with any anchor drug

PIK3CA #1 | synergy score with trametinib: 0.0244 (active); synergy score with cetuximab: 0.211; synergy score with BYL719: 0.0574
PIK3CA #2 | synergy score with trametinib: 0.0423; synergy score with cetuximab: -0.0415; synergy score with BYL719: -0.0883
PIK3CA #3 | synergy score with trametinib: -0.00505; synergy score with cetuximab: 0.0442; synergy score with BYL719: -0.00896
PIK3CA #4 | synergy score with trametinib: -0.0206; synergy score with cetuximab: -0.0686; synergy score with BYL719: -0.162
BRAF #1 | synergy score with trametinib: 0.144 (active); synergy score with cetuximab: -0.0126; synergy score with BYL719: 0.0356
BRAF #2 | synergy score with trametinib: 0.248 (active); synergy score with cetuximab: -0.108; synergy score with BYL719: 0.175
BRAF #3 | synergy score with trametinib: -0.038; synergy score with cetuximab: -0.108; synergy score with BYL719: -0.0943
BRAF #4 | synergy score with trametinib: 0.173 (active); synergy score with cetuximab: 0.0142; synergy score with BYL719: -0.0264
MAPK4 #1 | synergy score with trametinib: 0.0565; synergy score with cetuximab: -0.00832; synergy score with BYL719: -0.162
MAPK4 #2 | synergy score with trametinib: 0.141 (active); synergy score with cetuximab: -0.0273; synergy score with BYL719: 0.0632
MAPK4 #3 | synergy score with trametinib: 0.101 (active); synergy score with cetuximab: -0.0519; synergy score with BYL719: -0.0489
MAPK4 #4 | synergy score with trametinib: 0.0472; synergy score with cetuximab: -0.0781; synergy score with BYL719: 0.068

2 neighbouring entries already listed, for reference:
BRAF #1 | synergy score with trametinib: 0.144 (active); synergy score with cetuximab: -0.0126; synergy score with BYL719: 0.0356
BRAF #2 | synergy score with trametinib: 0.248 (active); synergy score with cetuximab: -0.108; synergy score with BYL719: 0.175
